# Measured values taken from PubChem BioAssay (EPA / NIEHS).
# Sequences of proteins named here, by UniProt entry; tags and fusion partners are left off. A change or cut given only in a name is not applied to a line headed by its entry.
# UniProt P10275: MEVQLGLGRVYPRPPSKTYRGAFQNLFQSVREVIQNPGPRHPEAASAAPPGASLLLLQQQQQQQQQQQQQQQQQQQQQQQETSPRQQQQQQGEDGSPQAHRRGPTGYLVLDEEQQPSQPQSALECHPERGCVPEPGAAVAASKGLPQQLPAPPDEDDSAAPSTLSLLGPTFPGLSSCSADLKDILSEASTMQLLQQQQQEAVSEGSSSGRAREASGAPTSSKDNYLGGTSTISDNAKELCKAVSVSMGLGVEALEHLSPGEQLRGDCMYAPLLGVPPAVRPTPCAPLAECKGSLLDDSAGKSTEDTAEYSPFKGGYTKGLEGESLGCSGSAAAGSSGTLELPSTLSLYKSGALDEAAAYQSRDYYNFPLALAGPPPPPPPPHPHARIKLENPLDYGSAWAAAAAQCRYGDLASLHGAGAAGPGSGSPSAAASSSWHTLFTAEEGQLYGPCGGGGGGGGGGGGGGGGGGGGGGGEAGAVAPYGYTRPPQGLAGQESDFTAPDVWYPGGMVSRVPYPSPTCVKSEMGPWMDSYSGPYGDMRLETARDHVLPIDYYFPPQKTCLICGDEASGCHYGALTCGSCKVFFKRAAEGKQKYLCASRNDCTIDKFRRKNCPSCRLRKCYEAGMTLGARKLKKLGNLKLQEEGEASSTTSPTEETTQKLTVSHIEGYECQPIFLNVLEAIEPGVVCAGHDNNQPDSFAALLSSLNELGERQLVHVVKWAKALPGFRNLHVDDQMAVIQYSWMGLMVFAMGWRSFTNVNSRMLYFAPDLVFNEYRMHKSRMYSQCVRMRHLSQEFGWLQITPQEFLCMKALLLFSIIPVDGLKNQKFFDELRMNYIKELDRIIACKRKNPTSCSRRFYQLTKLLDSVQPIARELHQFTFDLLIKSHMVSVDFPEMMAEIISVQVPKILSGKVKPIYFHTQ
# Inconclusive results, whose numbers are uncertain, are shown with a selection of clear calls. Potencies of inconclusive entries are doubtful fits and often do not repeat. Active and inactive are the calls of the source. Rule for the calls: active = hit-call score of the fitted dose curve at least 0.9, where 1 is the maximum; inconclusive = response in the unintended direction; inactive = score below 0.9.
# System: not listed separately
# Test: ACEA_ER_AUC_viability: ACEA Biosciences xCELLigence Real-Time Cell Analysis on Estrogen Receptor Agonism for Viability (AID 2283782);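 note: hit means loss of impedance signal meaning reduced cell growth or viability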
# Summary of the method: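 Continuous-exposure impedance cell analysis uses T-47D cells in charcoal-stripped serum, eight 1:4 dilutions topping at 100 uM final, biological duplicate. Area under the growth curve at 80 h is fitted against DMSO baseline.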
SMILES,AC50,outcome
ClCC(Cl)CCl,inconclusive: 50 µM,–
ClC1=C(Cl)[C@]2(Cl)[C@@H]3[C@@H]4C[C@@H]([C@H]5O[C@@H]45)[C@@H]3[C@@]1(Cl)C2(Cl)Cl,inconclusive: 5.08 µM,–
Clc1ccc(C(c2ccc(Cl)cc2)C(Cl)Cl)cc1,active: 26.1 µM,–
C=CC1(C)OC(=O)N(c2cc(Cl)cc(Cl)c2)C1=O (stereo unspecified),inconclusive: 0.00428 µM,inactive
O=C(N[C@H]1CN2CCC1CC2)c1cc2ccoc2cn1,inconclusive: 0.00061 µM,–
CCCCC(O)(Cn1cncn1)c1ccc(Cl)cc1Cl (stereo unspecified),active: 75.5 µM,–

# Molecular target: AR (gene 367) (UniProt P10275)
# Test: ACEA_AR_agonist_80hr: ACEA Biosciences xCELLigence Real-Time Cell Analysis on Androgen Receptor Agonism for Proliferation (AID 2283783);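 note: hits increase impedance growth signal above DMSO baseline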
# Summary of the method: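 Real-time cell-growth kinetics were recorded by electrode impedance in 22Rv1 cells exposed to test chemicals up to 100 uM final; the 80 h timepoint served as the readout, fitted upward relative to DMSO controls, in biological duplicate.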
SMILES,AC50,outcome
CC(C)N1C(=O)N(c2ccccc2)CSC1=NC(C)(C)C,inconclusive: 50 µM,–
CCNS(=O)(=O)C(F)(F)C(F)(F)C(F)(F)C(F)(F)C(F)(F)C(F)(F)C(F)(F)C(F)(F)F,active: 48.2 µM,–
CC(C)(C)N(NC(=O)c1ccc(Cl)cc1)C(=O)c1ccccc1,inconclusive: 4.64 µM,–
CNC(=O)Oc1cccc2c1OC(C)(C)C2,inconclusive: 0.652 µM,–
O=C(N[C@H]1CN2CCC1CC2)c1cc2ccoc2cn1,–,inactive
CCc1cccc(CC)c1N(COC)C(=O)CCl,inconclusive: 50 µM,–
COP(=O)(OC)O/C(=C\Cl)c1cc(Cl)c(Cl)cc1Cl,inconclusive: 16.6 µM,–
O=C(N[C@H]1CN2CCC1CC2)c1ccc2c(c1)OCCO2,–,inactive
CCCCC(O)(Cn1cncn1)c1ccc(Cl)cc1Cl (stereo unspecified),–,inactive
COP(=O)(OC)OC(Br)C(Cl)(Cl)Br (stereo unspecified),–,inactive
CNC(=O)ON=C(SC)C(=O)N(C)C,–,inactive

# System: not listed separately
# Test: STM_H9_NormalizedViability: Cytotoxicity Assessment at 120 hours in the Stemina devTOX quickPredict H9 human embryonic stem cell (hESC)-based Assay (AID 2283784)
# Summary of the method: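 Here, H9 cells received test compound with daily medium renewal. Each plate included methotrexate references (1uM, 5 nM), 0.1% DMSO and media blanks; CellTiter-Fluor RFU was normalized to DMSO.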
SMILES,AC50,outcome
Nn1cnnc1,inconclusive: 15.2 µM,–
COc1cc(C=O)cc2c1[C@H](COC(N)=O)[C@]1(OC(C)=O)ON2C[C@H]2[C@@H]1N2C(C)=O,active: 0.00149 µM,–
CS(=O)(=O)c1cc(C(F)(F)F)ccc1C(=O)c1cnoc1C1CC1,–,inactive
CC1(c2ccc(Oc3ccccc3)cc2)OC(=O)N(Nc2ccccc2)C1=O (stereo unspecified),active: 3.35 µM,–
N#CCCC(Br)(C#N)CBr (stereo unspecified),active: 95.3 µM,–
Cc1ccc(N)cc1N,active: 36.1 µM,–
ClCC(Cl)CCl,–,inactive
ClC1=C(Cl)[C@]2(Cl)[C@@H]3[C@@H]4C[C@@H]([C@H]5O[C@@H]45)[C@@H]3[C@@]1(Cl)C2(Cl)Cl,inconclusive: 0.00327 µM,–
Clc1ccc(C(c2ccc(Cl)cc2)C(Cl)Cl)cc1,inconclusive: 1.68 µM,–
CC(C)COC(=O)c1ccccc1C(=O)OCC(C)C,–,inactive
CNC(=O)Oc1cccc2ccccc12,inconclusive: 0.306 µM,–
O=C(Nc1ccccc1)Nc1cnns1,–,inactive
CCCCC(O)(Cn1cncn1)c1ccc(Cl)cc1Cl (stereo unspecified),active: 78.3 µM,–
